Experimental findings from publication PMC12273484 are described below.

The chains behind the UniProt entries cited, without tags or fusion partners. Where a name states a change or a piece, a line headed by the entry shows the natural chain unless it says otherwise.
UniProt Q7Z434: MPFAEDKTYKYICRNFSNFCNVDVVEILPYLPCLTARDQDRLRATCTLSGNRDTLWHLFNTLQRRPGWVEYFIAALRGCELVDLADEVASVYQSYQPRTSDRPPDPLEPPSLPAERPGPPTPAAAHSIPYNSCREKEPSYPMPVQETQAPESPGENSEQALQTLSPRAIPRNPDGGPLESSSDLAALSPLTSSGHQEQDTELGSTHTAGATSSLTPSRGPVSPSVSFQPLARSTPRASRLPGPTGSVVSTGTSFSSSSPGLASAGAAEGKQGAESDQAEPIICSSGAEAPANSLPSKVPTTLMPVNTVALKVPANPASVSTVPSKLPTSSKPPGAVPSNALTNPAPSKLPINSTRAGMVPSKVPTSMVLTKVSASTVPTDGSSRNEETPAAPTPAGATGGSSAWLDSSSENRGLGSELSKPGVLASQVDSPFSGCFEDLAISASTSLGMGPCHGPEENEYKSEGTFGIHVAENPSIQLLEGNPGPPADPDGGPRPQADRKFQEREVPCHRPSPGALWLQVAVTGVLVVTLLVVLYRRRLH

These are yes or no findings as the source states them, for the method shown. Binding seen in cells or lysates may run through a third protein. Some binding calls cover weakened binding; strength is not graded here. For part of these data: Tags and fused reporters may be left off the sequences shown.

In test [1] the target is T1, TXNIP 174-300 fragment, Flag-tagged (human) (UniProt Q9H3M7).
T1 sequence: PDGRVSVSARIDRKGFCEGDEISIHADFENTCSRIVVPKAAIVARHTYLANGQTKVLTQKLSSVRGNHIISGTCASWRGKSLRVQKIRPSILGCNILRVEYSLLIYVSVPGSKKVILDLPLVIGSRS
In words: co-IP; 293T cells co-transfected with Flag- and HA-tagged plasmids (1.5 ug each), lysed after 48 h; lysate incubated overnight at 4 °C with IP beads pre-loaded with Flag or HA antibody, washed three times, Western blot.

In test [2] the target is T2, human TXNIP-Flag (thioredoxin-interacting protein) (human) (UniProt Q9H3M7).
T2 sequence: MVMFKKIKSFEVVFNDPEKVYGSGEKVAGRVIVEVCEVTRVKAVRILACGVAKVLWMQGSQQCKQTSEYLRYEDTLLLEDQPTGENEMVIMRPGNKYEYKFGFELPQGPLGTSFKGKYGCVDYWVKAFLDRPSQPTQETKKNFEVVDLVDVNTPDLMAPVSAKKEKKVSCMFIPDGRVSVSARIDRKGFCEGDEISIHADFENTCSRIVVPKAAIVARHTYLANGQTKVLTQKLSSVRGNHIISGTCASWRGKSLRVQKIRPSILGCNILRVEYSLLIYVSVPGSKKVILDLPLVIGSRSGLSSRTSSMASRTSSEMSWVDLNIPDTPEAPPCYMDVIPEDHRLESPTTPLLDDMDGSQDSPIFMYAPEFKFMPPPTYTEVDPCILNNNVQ
The test is described as above.

Test [3] deals with T3, humanTXNIP-VN173 (from pBiFC-humanTXNIP-VN173) (human) (UniProt Q9H3M7).
T3 sequence: T2 sequence
Nature of the test: split reporter; BiFC with Venus fragments VN173 and VC155 in 293T cells, 1000 ng plasmids, imaged by confocal microscopy after 48 h.

For “MAVS 1-180 fragment, HA-tagged (from UniProt Q7Z434 1-180) (domain or fragment)”, the binding entry in test [1] was “binds”.

As for MAVS-HA (from UniProt Q7Z434 1-540), the binding result in test [2] was “binds”.

As for “hMAVS-VC155 (from pBiFC-hMAVS-VC155) (from UniProt Q7Z434 1-540)”, in test [3], the binding entry is recorded as “binds”.
